Among the data in paper doi:10.1101/2025.03.19.643735 are binding values, retold here.

Protein sequences, listed by entry. Tags and fused reporters are not part of them. Lines headed by an entry give the natural chain unless they say otherwise; changes in a name come on top.
UniProt P35637: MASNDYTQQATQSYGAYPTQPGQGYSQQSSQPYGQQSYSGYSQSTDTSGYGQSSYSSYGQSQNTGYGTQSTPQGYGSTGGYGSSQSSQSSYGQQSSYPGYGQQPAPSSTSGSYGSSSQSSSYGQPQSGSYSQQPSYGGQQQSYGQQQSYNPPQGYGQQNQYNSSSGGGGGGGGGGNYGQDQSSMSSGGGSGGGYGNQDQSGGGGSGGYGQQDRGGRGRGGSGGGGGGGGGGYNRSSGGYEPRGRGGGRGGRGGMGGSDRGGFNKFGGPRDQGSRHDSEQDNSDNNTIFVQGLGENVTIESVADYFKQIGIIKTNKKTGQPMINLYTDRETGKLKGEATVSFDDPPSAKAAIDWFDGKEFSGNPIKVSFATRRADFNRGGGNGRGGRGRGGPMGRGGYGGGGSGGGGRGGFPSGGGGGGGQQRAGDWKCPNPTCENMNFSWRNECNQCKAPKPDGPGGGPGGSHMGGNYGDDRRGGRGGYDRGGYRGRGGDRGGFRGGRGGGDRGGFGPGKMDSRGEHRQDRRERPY

Where two headings read alike, the source gives them in different places. These are yes or no findings as the source states them, for the method shown. For some assays here: Binding seen in cells or lysates may run through a third protein. Some entries that bind do so weakly or less than the wild type. For some assays here: Where a sequence is shown, tags or fusion partners need not be part of it.

The target in assay [1] is T1, Sbp1-mScarlet (Saccharomyces cerevisiae) (UniProt P10080).
T1 sequence: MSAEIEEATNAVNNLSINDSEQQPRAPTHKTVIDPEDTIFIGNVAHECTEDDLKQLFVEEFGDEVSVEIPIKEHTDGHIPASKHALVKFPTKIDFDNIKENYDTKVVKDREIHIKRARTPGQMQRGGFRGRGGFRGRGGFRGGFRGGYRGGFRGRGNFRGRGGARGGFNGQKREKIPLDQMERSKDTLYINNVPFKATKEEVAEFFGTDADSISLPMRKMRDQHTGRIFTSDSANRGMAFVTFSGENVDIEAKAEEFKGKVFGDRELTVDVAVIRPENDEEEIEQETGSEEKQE
As to the kind of experiment: co-IP.

The target in assay [2] is MBP-FUS-eGFP (UniProt P35637). In words: pull-down.
Another assay addresses MBP-FUS-Flag-His (UniProt P35637). In words: pull-down.
For assay [3], the target named is FUS, cleaved from MBP with TeV protease (FUS-Flag as bait and FUS-eGFP as prey) (UniProt P35637). As to the kind of experiment: pull-down.
Assay [4] deals with MBP-FUS-eGFP (UniProt P35637). As to the kind of experiment: pull-down. The source holds these as a separate data set.

Turning to “eGFP-FUS-P525L (from UniProt P35637 1-526)”, the binding result (in assay [1]; with MBP-FUS-eGFP [2]) was “binds” in each case.

B1: His-Sbp1-GFP (protein, UniProt P10080 1-294)
chain: MSAEIEEATNAVNNLSINDSEQQPRAPTHKTVIDPEDTIFIGNVAHECTEDDLKQLFVEEFGDEVSVEIPIKEHTDGHIPASKHALVKFPTKIDFDNIKENYDTKVVKDREIHIKRARTPGQMQRGGFRGRGGFRGRGGFRGGFRGGYRGGFRGRGNFRGRGGARGGFNGQKREKIPLDQMERSKDTLYINNVPFKATKEEVAEFFGTDADSISLPMRKMRDQHTGRIFTSDSANRGMAFVTFSGENVDIEAKAEEFKGKVFGDRELTVDVAVIRPENDEEEIEQETGSEEKQE
As to B1, the binding result (in the assay with MBP-FUS-Flag-His; in assay [3]) was “binds” throughout.

B2: recombinant Sbp1 (protein, UniProt P10080 1-294)
chain: MSAEIEEATNAVNNLSINDSEQQPRAPTHKTVIDPEDTIFIGNVAHECTEDDLKQLFVEEFGDEVSVEIPIKEHTDGHIPASKHALVKFPTKIDFDNIKENYDTKVVKDREIHIKRARTPGQMQRGGFRGRGGFRGRGGFRGGFRGGYRGGFRGRGNFRGRGGARGGFNGQKREKIPLDQMERSKDTLYINNVPFKATKEEVAEFFGTDADSISLPMRKMRDQHTGRIFTSDSANRGMAFVTFSGENVDIEAKAEEFKGKVFGDRELTVDVAVIRPENDEEEIEQETGSEEKQE
On to B2, for which, in the assay with MBP-FUS-eGFP [4], the binding entry is on record as “binds”.
